PubChem BioAssay (NCATS)
“And” between values parts separate entries of the source, which are not always exact repeats. Equal entries are not always repeated. The inconclusive results got no clear call from the source; some entries with a clear call stand among them for comparison. For part of these data: Where the call is inconclusive, the potency comes from a doubtful curve fit. The source made the active and inactive calls. Unless noted, calls follow the shape of the dose curve; as a rule, active = well fitted curve in the direction sought with a large enough effect; inconclusive = small, poorly fitted or top-dose-only effect, or another doubt; inactive = no such curve, though single readings can be large; an effect the other way counts as inactive or inconclusive.

Chains of the proteins cited; added tags and fusions are not shown. Lines headed by an entry give the natural chain unless they say otherwise; changes in a name come on top.
UniProt P10828: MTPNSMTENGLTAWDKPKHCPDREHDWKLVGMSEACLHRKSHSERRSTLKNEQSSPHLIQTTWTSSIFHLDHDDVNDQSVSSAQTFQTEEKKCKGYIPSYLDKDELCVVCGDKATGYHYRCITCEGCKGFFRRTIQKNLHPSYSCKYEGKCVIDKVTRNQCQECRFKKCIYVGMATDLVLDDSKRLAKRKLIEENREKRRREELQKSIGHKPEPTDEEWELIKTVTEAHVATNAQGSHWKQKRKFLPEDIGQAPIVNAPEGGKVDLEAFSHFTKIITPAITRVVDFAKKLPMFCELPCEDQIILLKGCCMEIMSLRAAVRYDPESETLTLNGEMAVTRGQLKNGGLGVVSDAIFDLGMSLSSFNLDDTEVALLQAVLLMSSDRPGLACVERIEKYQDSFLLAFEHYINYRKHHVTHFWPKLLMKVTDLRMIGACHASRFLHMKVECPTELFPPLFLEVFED
UniProt Q03431: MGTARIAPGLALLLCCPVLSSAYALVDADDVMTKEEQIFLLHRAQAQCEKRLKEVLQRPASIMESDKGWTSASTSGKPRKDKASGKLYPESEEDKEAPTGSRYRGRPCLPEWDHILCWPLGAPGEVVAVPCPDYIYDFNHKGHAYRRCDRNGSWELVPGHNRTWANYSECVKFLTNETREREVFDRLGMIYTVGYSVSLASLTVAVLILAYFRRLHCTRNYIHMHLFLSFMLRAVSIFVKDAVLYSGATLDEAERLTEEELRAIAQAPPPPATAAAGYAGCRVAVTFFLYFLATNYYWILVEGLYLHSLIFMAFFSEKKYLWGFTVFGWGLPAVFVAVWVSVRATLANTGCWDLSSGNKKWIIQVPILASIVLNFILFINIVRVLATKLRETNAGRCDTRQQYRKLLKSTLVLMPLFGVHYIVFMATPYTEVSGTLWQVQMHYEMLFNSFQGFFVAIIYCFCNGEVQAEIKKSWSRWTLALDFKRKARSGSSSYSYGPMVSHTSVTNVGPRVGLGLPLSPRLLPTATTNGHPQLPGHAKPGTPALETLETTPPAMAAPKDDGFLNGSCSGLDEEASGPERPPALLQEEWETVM

What was measured:
[1] = biological target: Thyroid hormone receptor beta (Homo sapiens) (UniProt P10828); experiment: qHTS assay for small molecule antagonists of thyroid hormone receptor beta signaling (AID 588547; active = well fitted inhibition curve with a large enough effect in the signal ratio, with a control signal flat, not every such curve was filed as active; inconclusive = small, poorly fitted or top-dose-only effect, or effect the other way, or a change in a side signal; the % refers to the signal ratio;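 also: cells stimulated with 0.4 nM T3 agonist during compound exposure; % is scaled to controls: 0 for no effect and ±100 for the full control effect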); settings: TR-UAS-bla HEK293, beta-lactamase ratio, antagonist mode, 18 h
In short: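 Inhibition of T3-driven (0.4nM final) beta-lactamase reporter activity was measured over 0.59 nM to 92 uM compound after 18 h at 37 C. The cells were GripTite HEK293 TR-UAS-bla in charcoal/dextran-stripped serum, with CCF4 ratio read-out and IC50 from Hill fits.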

[2] = qHTS assay for small molecule agonists of the antioxidant response element (ARE) signaling pathway (AID 651741; active = well fitted activation curve with a large enough effect in the signal ratio; inconclusive = small, poorly fitted or top-dose-only effect, or effect the other way, or a change in a side signal; the % refers to the signal ratio; also: potency is read from the fitted curve at half-maximal effect); settings: HepG2 ARE-bla reporter, beta-lactamase FRET ratio, 16 h; activation: at 96 µM (top of the series)
In short: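 Quantitative HTS in HepG2 cells stably expressing an ARE-beta-lactamase reporter; 16 h compound exposure at 37 C, followed by 2 h room-temperature incubation with LiveBLAzer B/G FRET substrate and fluorescence measurement.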

[3] = qHTS assay for small molecule agonists of the antioxidant response element (ARE) signaling pathway measured by Nrf2-dependant transcriptional activity (AID 720636; active = well fitted curve in the direction sought with a large enough effect in the repeat runs; inconclusive = weak or mixed curves; inactive = no such curve, though single readings can be large; an effect the other way counts as inactive or inconclusive; also: potency is read from the fitted curve at half-maximal effect)
In short: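 Nrf2-dependent transcription is measured in ARE-luc HepG2 cells: compound is applied for 16 hr at 37 C after a 6 hr attachment period, and luciferase activity is quantified by luminescence using ONE-Glo.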

[4] = biological target: Parathyroid hormone/parathyroid hormone-related peptide receptor (Homo sapiens) (UniProt Q03431); experiment: qHTS for PTHR1 Agonists: Optimization Screen against the NCGC LOPAC library (AID 1347079);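 also: GloSensor cAMP luminescence in HEK-293 GP2 cells expressing human PTHR1 with IBMX; 0% is about no effect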
In short: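 Agonist readout: GloSensor cAMP luminescence, read after 15 min at room temperature. HEK-293-derived GP2 line carries PTHR1; compounds tested as a titration for 1 hr at 37C in presence of IBMX. M-PTH (1-15) served as control.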

[5] = qHTS of pediatric cancer cell lines to identify multiple opportunities for drug repurposing: Primary screen for SJ-GBM2 cells (AID 1347091); also: potency is read from the fitted curve at half-maximal effect
In short: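 Cell viability, CellTiter-Glo luminescence; 500-1,000 cells/well, 8- or 11-point titration, 48 h compound exposure at 37 degrees C, 5% CO2. Controls: DMSO neutral, bortezomib 2.3 µM final as positive.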

[6] = qHTS of pediatric cancer cell lines to identify multiple opportunities for drug repurposing: Primary screen for A673 cells (AID 1347092); settings: A673 Ewing sarcoma viability, CellTiter-Glo ATP luminescence, 48 h; activity change, negative = cytotoxic: at 46 µM (top of the series); also: % is scaled to controls: 0 for no effect and ±100 for the full control effect; nearly all actives have a fitted effect of over 45% in size
In short: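 A673 cells (500-1,000 cells/well in growth media) were pre-incubated 5 h at 37 degrees C, then exposed to compounds for 48 h. Viability was read as CellTiter-Glo luminescence; concentration-response curves came directly from the primary screen.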

[7] = qHTS of pediatric cancer cell lines to identify multiple opportunities for drug repurposing: Primary screen for SK-N-MC cells (AID 1347093); settings: SK-N-MC viability, CellTiter-Glo luminescence, 48 h; activity change, negative = cytotoxic: at 46 µM (top of the series); also: potency is read from the fitted curve at half-maximal effect
In short: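 Metabolically active cells were quantified by ATP-dependent luminescence (CellTiter-Glo, 15 min at room temperature) following 48 h treatment. Cells had been plated at 500-1,000 per well and settled for 5 h beforehand.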

[8] = qHTS of pediatric cancer cell lines to identify multiple opportunities for drug repurposing: Primary screen for BT-37 cells (AID 1347094); also: potency is read from the fitted curve at half-maximal effect
In short: (§1)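 Readout: CellTiter-Glo luminescence, 48 h treatment. Controls DMSO (neutral) and bortezomib 2.3 µM final (positive). Potency and efficacy taken from primary-screen concentration-response curves.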

[9] = qHTS of pediatric cancer cell lines to identify multiple opportunities for drug repurposing: Primary screen for NB-EBc1 cells (AID 1347095); also: potency is read from the fitted curve at half-maximal effect
In short: as §1

[10] = qHTS of pediatric cancer cell lines to identify multiple opportunities for drug repurposing: Primary screen for Saos-2 cells (AID 1347097); settings: Saos-2 viability, CellTiter-Glo ATP luminescence, 48 h; activity change, negative = cytotoxic: at 46 µM (top of the series); also: potency is read from the fitted curve at half-maximal effect; nearly all actives have a fitted effect of over 40% in size
In short: as §1

[11] = qHTS of pediatric cancer cell lines to identify multiple opportunities for drug repurposing: Primary screen for SK-N-SH cells (AID 1347098); also: potency is read from the fitted curve at half-maximal effect; nearly all actives have a fitted effect of over 65% in size
In short: (§2)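 Cells (500-1,000/well) rested 5 h, then received compounds for 48 h; metabolically active cells were measured by CellTiter-Glo luminescence. Final concentrations spanned up to 46 µM (MIPE, 11-point) or 0.59 nM-46 µM (NPC, 8-point) in primary screens, 11-point in follow-ups.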

[12] = qHTS of pediatric cancer cell lines to identify multiple opportunities for drug repurposing: Primary screen for LAN-5 cells (AID 1347100); also: potency is read from the fitted curve at half-maximal effect
In short: as §2

[13] = qHTS of pediatric cancer cell lines to identify multiple opportunities for drug repurposing: Primary screen for BT-12 cells (AID 1347101); also: potency is read from the fitted curve at half-maximal effect; nearly all actives have a fitted effect of over 25% in size
In short: as §2

[14] = qHTS of pediatric cancer cell lines to identify multiple opportunities for drug repurposing: Primary screen for OHS-50 cells (AID 1347103); settings: OHS-50 osteosarcoma viability, CellTiter-Glo luminescence, 48 h; activity change, negative = cytotoxic: at 57.3 µM (top of the series); also: potency is read from the fitted curve at half-maximal effect; nearly all actives have a fitted effect of over 40% in size
In short: as §2

[15] = qHTS of pediatric cancer cell lines to identify multiple opportunities for drug repurposing: Primary screen for MG 63 (6-TG R) cells (AID 1347105); settings: MG 63 (6-TG R) viability, CellTiter-Glo, 48 h; activity change, negative = cytotoxic: at 46 µM (top of the series); also: potency is read from the fitted curve at half-maximal effect; nearly all actives have a fitted effect of over 50% in size
In short: as §1

[16] = qHTS of pediatric cancer cell lines to identify multiple opportunities for drug repurposing: Primary screen for Rh30 cells (AID 1347107); also: % is scaled to controls: 0 for no effect and ±100 for the full control effect; nearly all actives have a fitted effect of over 75% in size
In short: as §2

[17] = qHTS of pediatric cancer cell lines to identify multiple opportunities for drug repurposing: Primary screen for Rh41 cells (AID 1347108); also: potency is read from the fitted curve at half-maximal effect; nearly all actives have a fitted effect of over 70% in size
In short: as §1

[18] = Primary qHTS for small molecule stabilizers of the endoplasmic reticulum resident proteome: Secreted ER Calcium Modulated Protein (SERCaMP) assay (AID 1508630); settings: SH-SY5Y GLuc-SERCaMP secretion, thapsigargin, luminescence; activity change, negative = inhibition: at 38.4 µM (top of the series) unless noted; also: % is scaled to controls: 0 for no effect and ±100 for the full control effect
In short: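 GLuc-SERCaMP-expressing SH-SY5Y cells, pretreated 16 h with compound, are challenged with thapsigargin to empty ER calcium stores; after 4 h, coelenterazine is added directly to the medium and luminescence is imaged.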

CC(C)OC(=O)C(C)(C)Oc1ccc(C(=O)c2ccc(Cl)cc2)cc1
activity change % (negative = inhibition) [1]: inconclusive: -32.2%
Potency [2]: inconclusive: 68.6 µM [activator, partial curve]
Potency [3]: inconclusive: 54.5 µM [activator, partial curve, poor fit]
Potency [4]: inactive
Potency [5]: inconclusive: 21.1 µM [cytotoxic, single point] and inconclusive: 18.7 µM [cytotoxic, partial curve]
Potency [6]: inactive
Potency [7]: inconclusive: 33.5 µM [cytotoxic, single point]
Potency [8]: inconclusive: 21.9 µM [cytotoxic, partial curve, poor fit] and inconclusive: 24.3 µM [cytotoxic, single point]
Potency [9]: inconclusive: 16.8 µM [cytotoxic, partial curve, poor fit] and inconclusive: 29.6 µM [cytotoxic, single point]
Potency [10]: inconclusive: 18.7 µM [cytotoxic, partial curve]
Potency [11]: inconclusive: 27.1 µM [cytotoxic, single point]
Potency [12]: inconclusive: 33.2 µM [cytotoxic, single point]
Potency [13]: inconclusive: 15.5 µM [cytotoxic, partial curve] and inconclusive: 30.6 µM [cytotoxic, single point]
Potency [14]: inconclusive: 24.6 µM [cytotoxic, single point] and inconclusive: 21.7 µM [cytotoxic, partial curve]
Potency [15]: inconclusive: 5.9 µM [cytotoxic, partial curve]
Potency [16]: inactive
Potency [17]: inconclusive: 10.5 µM [cytotoxic, partial curve]
Potency [18]: inactive
